No constants are given. Whether binding was seen depends on the method and setting. In cells and extracts the contact can be indirect. A result given as binding can be weak or reduced; the word gives no strength.
How the values were obtained:
Experiment in all cases: pull-down; co-expression of four proteins in E. coli from three plasmids (bi-cistronic UTP12-UTP13 in modified pET-28b, PWP2 and UTP21 constructs in modified pET-15b and pCDF); cobalt-affinity pull-down, SDS-PAGE, Coomassie; bands confirmed by mass spectrometry
[1] = target: T1, Utp13p, full-length (co-expressed in E. coli) (S. cerevisiae) (UniProt Q05946)
T1 sequence: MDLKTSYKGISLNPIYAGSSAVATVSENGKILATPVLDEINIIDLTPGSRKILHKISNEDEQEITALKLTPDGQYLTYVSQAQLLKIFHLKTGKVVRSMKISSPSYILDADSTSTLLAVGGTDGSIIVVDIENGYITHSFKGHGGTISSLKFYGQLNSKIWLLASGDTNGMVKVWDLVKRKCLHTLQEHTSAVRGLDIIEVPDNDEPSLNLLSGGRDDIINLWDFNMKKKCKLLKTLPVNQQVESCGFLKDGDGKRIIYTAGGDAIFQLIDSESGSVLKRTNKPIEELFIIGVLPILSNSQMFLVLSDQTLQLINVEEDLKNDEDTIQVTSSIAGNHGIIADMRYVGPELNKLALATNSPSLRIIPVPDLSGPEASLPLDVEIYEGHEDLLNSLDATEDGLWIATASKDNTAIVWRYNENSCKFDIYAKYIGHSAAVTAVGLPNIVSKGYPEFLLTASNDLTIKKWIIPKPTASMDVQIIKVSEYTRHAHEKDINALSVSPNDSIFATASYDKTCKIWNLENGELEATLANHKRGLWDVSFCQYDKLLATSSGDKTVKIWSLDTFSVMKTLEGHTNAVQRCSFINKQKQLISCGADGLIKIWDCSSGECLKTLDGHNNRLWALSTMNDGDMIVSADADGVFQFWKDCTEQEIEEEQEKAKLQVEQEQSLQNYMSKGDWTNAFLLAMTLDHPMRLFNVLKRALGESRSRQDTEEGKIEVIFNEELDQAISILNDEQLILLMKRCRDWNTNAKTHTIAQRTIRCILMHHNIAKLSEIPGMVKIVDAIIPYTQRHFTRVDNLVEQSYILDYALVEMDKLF

Sequences of proteins named here, by UniProt entry; tags and fusion partners are left off. A change or cut given only in a name is not applied to a line headed by its entry.
UniProt P25635: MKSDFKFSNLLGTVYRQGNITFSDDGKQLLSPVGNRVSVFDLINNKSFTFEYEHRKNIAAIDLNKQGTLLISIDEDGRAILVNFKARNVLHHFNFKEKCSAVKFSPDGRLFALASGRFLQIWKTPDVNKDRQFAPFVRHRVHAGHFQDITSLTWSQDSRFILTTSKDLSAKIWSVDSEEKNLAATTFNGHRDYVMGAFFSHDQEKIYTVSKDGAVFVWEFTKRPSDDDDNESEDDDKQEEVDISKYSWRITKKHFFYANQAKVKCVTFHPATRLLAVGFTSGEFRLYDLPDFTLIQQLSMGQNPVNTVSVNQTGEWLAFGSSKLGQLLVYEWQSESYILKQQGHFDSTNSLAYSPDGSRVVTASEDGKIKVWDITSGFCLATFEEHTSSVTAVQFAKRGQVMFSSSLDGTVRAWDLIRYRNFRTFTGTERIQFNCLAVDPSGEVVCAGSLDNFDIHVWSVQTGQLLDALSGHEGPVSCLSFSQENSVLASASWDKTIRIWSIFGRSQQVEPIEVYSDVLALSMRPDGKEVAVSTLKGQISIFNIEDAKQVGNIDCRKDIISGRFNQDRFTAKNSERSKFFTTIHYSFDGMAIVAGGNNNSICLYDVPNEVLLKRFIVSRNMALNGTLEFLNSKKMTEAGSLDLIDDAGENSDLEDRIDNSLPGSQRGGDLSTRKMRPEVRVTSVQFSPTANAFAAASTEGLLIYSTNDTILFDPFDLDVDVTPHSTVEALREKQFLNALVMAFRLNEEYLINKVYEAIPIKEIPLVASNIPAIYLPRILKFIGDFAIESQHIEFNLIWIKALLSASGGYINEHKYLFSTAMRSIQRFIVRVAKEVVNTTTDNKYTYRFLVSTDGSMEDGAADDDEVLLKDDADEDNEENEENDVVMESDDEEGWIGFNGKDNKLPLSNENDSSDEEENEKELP
UniProt Q06078: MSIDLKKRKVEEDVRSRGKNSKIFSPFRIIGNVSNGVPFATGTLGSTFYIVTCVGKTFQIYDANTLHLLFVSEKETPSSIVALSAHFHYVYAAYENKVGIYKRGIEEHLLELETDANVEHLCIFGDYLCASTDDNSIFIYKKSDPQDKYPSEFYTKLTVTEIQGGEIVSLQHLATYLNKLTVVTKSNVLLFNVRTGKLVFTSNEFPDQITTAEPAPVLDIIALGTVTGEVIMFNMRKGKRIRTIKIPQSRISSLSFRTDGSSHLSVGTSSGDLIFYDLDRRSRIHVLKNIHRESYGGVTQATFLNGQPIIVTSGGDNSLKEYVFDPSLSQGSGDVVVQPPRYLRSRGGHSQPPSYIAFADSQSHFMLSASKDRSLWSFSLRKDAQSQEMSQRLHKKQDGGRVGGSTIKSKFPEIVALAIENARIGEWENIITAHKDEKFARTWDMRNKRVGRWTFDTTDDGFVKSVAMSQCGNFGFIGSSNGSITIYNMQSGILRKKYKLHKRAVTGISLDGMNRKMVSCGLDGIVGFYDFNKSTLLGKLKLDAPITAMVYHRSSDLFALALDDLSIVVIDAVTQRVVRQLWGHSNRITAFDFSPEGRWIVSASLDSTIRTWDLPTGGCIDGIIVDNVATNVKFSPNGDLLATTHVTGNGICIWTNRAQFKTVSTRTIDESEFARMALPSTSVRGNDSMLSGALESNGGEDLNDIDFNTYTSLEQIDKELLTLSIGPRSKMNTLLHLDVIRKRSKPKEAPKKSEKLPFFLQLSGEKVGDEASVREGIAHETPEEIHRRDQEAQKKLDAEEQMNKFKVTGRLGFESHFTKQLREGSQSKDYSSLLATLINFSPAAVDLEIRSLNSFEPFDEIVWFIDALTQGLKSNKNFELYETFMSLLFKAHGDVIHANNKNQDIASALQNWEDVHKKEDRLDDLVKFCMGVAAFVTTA

[2] = target: T2, Utp12p, full-length (co-expressed in E. coli) (S. cerevisiae) (UniProt Q12220)
T2 sequence: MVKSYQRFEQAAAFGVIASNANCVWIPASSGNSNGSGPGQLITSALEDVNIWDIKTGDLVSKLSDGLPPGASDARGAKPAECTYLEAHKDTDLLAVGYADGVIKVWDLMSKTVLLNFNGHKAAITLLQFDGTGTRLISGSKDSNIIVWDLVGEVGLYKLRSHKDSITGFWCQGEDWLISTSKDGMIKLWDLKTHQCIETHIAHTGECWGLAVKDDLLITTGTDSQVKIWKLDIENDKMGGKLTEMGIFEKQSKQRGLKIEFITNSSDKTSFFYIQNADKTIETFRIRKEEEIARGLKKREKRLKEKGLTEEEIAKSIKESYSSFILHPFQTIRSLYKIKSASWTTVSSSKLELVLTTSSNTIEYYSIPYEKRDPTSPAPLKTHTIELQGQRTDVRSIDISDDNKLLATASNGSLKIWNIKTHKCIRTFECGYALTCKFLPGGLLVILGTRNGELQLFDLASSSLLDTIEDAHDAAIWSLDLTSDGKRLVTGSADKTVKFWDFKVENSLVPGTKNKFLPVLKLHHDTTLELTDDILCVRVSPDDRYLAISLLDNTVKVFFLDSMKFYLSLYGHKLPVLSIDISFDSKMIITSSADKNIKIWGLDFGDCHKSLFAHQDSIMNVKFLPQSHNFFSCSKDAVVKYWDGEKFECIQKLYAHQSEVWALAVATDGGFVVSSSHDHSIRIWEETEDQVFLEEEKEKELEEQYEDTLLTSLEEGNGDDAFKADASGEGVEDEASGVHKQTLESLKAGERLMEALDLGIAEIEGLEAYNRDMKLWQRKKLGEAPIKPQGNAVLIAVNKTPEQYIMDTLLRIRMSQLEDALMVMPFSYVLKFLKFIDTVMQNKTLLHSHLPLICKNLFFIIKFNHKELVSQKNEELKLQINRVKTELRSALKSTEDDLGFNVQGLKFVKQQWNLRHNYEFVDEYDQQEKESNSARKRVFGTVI

[3] = target: Pwp2p C-terminal domain (CTD), E. coli (S. cerevisiae) (UniProt P25635)

With “Pwp2p C-terminal domain (CTD), E. coli (from UniProt P25635) (domain or fragment)” the binding [1] was “binds” and the binding [2] was “binds”.
“Utp21p C-terminal domain (CTD), E. coli (from UniProt Q06078) (domain or fragment)” was tested, and the binding [1] was “binds”, the binding [3] was “binds” and the binding [2] was “binds”.

Reference: article PMC5466602
